# The other results are listed elsewhere or left out.
# By UniProt entry, the sequences of proteins in these tests, tags left out. Where a name states a change or a piece, a line headed by the entry shows the natural chain unless it says otherwise.
# UniProt P17096: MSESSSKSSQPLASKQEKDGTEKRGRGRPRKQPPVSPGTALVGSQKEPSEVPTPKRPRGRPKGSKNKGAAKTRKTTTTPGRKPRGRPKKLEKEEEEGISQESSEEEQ
# UniProt P56937: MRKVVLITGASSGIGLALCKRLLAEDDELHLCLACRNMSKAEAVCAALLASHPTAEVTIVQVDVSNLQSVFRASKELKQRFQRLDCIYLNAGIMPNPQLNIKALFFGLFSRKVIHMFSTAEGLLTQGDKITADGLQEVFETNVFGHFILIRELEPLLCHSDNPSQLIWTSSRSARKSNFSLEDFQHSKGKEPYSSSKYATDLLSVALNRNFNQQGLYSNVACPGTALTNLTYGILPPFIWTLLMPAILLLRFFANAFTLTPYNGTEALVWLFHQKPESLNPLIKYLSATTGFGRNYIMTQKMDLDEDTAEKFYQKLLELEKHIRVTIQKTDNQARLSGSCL
# UniProt Q15651: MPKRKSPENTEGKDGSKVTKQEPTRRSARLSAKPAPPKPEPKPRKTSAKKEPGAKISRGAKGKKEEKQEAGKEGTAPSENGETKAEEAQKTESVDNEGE
# UniProt Q53FT3: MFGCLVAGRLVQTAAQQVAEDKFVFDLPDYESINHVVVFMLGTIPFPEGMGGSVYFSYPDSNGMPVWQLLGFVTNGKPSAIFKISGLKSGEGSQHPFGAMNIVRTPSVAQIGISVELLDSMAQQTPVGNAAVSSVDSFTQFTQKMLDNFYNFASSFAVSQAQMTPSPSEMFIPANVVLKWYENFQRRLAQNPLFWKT
# UniProt P52789: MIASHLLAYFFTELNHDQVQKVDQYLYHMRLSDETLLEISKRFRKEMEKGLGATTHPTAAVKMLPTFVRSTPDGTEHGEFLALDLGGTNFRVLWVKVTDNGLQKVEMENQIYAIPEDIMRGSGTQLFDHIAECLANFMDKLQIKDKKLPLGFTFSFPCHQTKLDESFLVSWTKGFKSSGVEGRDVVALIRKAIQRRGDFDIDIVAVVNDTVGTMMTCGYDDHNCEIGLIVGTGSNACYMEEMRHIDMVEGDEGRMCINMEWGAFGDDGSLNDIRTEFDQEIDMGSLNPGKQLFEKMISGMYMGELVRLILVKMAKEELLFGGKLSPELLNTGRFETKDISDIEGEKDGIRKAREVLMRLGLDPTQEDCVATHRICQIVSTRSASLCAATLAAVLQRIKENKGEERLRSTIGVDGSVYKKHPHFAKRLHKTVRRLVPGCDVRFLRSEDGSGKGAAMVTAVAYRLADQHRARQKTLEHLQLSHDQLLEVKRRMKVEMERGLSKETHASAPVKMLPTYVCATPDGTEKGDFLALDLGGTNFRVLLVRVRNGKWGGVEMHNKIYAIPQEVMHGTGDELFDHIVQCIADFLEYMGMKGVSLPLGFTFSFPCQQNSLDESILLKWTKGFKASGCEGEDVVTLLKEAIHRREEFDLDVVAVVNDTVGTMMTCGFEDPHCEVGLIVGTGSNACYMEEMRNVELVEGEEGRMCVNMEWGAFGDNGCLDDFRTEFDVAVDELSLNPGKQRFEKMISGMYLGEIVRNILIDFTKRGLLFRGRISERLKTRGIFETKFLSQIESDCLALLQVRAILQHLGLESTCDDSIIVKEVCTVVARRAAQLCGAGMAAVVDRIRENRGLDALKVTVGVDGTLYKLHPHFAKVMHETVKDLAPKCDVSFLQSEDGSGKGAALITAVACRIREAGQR
# Experiments:
# Assay in all cases: log2 fold change, soluble protein after heating vs DMSO (PISA); higher = thermal stabilisation; K562 lysate, 10 uM; active = over 0.2 and 3.5 SD of the protein, either way, in both replicates (recomputed)
# lapatinib = compound: CS(=O)(=O)CCNCc1ccc(-c2ccc3ncnc(Nc4ccc(OCc5cccc(F)c5)c(Cl)c4)c3c2)o1 [lapatinib]
# How it was run: (§1)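 The values are log-two fold changes in thermal stability compared with solvent controls and come from duplicates. They were obtained by TMTpro 16plex LC-MS/MS, with channel sums equalised, on the supernatant after 21,000xg for 90 min. That supernatant came from crude K562 extract at 1 mg/mL protein treated with 10 μM compound for 30 min, heated for 3 min across 48°C-58°C, pooled and brought to 0.5% NP-40 at 4°C.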
# crizotinib = compound: C[C@@H](Oc1cc(-c2cnn(C3CCNCC3)c2)cnc1N)c1c(Cl)ccc(F)c1Cl [crizotinib]
# How it was run: as §1
# [1] = compound: C[C@H](C1=CC=C(C=C1)C(=O)NC2=C3C=CNC3=NC=C2)N
# How it was run: as §1
# duvelisib = compound: C[C@H](Nc1ncnc2nc[nH]c12)c1cc2cccc(Cl)c2c(=O)n1-c1ccccc1 [duvelisib]
# How it was run: as §1
# gandotinib = compound: Cc1cc(Nc2cc(CN3CCOCC3)c3nc(C)c(Cc4ccc(Cl)cc4F)n3n2)n[nH]1 [gandotinib]
# How it was run: as §1
# doramapimod = compound: Cc1ccc(-n2nc(C(C)(C)C)cc2NC(=O)Nc2ccc(OCCN3CCOCC3)c3ccccc23)cc1 [doramapimod]
# How it was run: as §1
# [2] = compound: Cc1cccc(CC(=O)N2CCc3c2ccc(-c2cn(C)c4ncnc(N)c24)c3F)n1
# How it was run: as §1
# nilotinib = compound: Cc1cn(-c2cc(NC(=O)c3ccc(C)c(Nc4nccc(-c5cccnc5)n4)c3)cc(C(F)(F)F)c2)cn1 [nilotinib]
# How it was run: as §1
# [3] = compound: Cc1nc(Nc2n[nH]c3c2CN(C(=O)N[C@H](CN(C)C)c2ccccc2)C3(C)C)c2sccc2n1
# How it was run: as §1
# dasatinib = compound: Cc1nc(Nc2ncc(C(=O)Nc3c(C)cccc3Cl)s2)cc(N2CCN(CCO)CC2)n1 [dasatinib]
# How it was run: as §1
# [4] = compound: Cc1ncc(-c2ccnc(Nc3ccc(S(C)(=O)=O)cc3)n2)n1C(C)C
# How it was run: as §1
# [5] = compound: Cn1cc(-c2ccc3c(c2)CCN3C(=O)Cc2cccc(C(F)(F)F)c2)c2c(N)ncnc21
# How it was run: as §1
# quisinostat = compound: Cn1cc(CNCC2CCN(c3ncc(C(=O)NO)cn3)CC2)c2ccccc21 [quisinostat]
# How it was run: as §1
# tipifarnib = compound: Cn1cncc1[C@@](N)(c1ccc(Cl)cc1)c1ccc2c(c1)c(-c1cccc(Cl)c1)cc(=O)n2C [tipifarnib]
# How it was run: as §1
# [6] = compound: NC(=O)Nc1cc(-c2cccc(F)c2)sc1C(=O)N[C@H]1CCCNC1
# How it was run: as §1
# [7] = compound: NC(=O)c1cnc(N[C@@H]2CCCC[C@@H]2N)nc1Nc1cccc(-n2nccn2)c1
# How it was run: as §1
# [8] = compound: NC1(c2ccc(-c3nc4ccn5c(=O)[nH]nc5c4cc3-c3ccccc3)cc2)CCC1
# How it was run: as §1
# pictilisib = compound: CS(=O)(=O)N1CCN(Cc2cc3nc(-c4cccc5[nH]ncc45)nc(N4CCOCC4)c3s2)CC1 [pictilisib]
# How it was run: as §1
# tozasertib = compound: Cc1cc(Nc2cc(N3CCN(C)CC3)nc(Sc3ccc(NC(=O)C4CC4)cc3)n2)n[nH]1 [tozasertib]
# How it was run: as §1
# bafetinib = compound: Cc1ccc(NC(=O)c2ccc(CN3CC[C@H](N(C)C)C3)c(C(F)(F)F)c2)cc1Nc1nccc(-c2cncnc2)n1 [bafetinib]
# How it was run: as §1
Target,log2 fold change (lapatinib),log2 fold change (crizotinib),log2 fold change [1],log2 fold change (duvelisib),log2 fold change (gandotinib),log2 fold change (doramapimod),log2 fold change [2],log2 fold change (nilotinib),log2 fold change [3],log2 fold change (dasatinib),log2 fold change [4],log2 fold change [5],log2 fold change (quisinostat),log2 fold change (tipifarnib),log2 fold change [6],log2 fold change [7],log2 fold change [8],log2 fold change (pictilisib),log2 fold change (tozasertib),log2 fold change (bafetinib)
HMGA1 isoform 2 (UniProt P17096),inactive: -0.005,inactive: 0.125,active: 0.731,inactive: -0.011,inactive: -0.26,inactive: -0.274,inactive: -0.491,inactive: 0.209,inactive: 0.014,inactive: 0.091,inactive: 0.395,inactive: -0.099,inactive: 0.289,inactive: 0.168,inactive: -0.018,inactive: -0.064,inactive: -0.101,–,–,–
HSD17B7 (UniProt P56937),inactive: 0.105,–,inactive: 0.029,inactive: 0.023,inactive: -0.13,–,inactive: 0.036,inactive: 0.047,inactive: 0.142,inactive: -0.096,inactive: 0.022,inactive: 0.06,–,inactive: 0.197,–,inactive: -0.07,inactive: -0.024,inactive: 0.022,inactive: 0.001,inactive: -0.055
HMGN3 (UniProt Q15651),inactive: 0.082,inactive: 0.014,inactive: -0.016,inactive: 0.051,inactive: 0.08,inactive: -0.147,inactive: -0.047,inactive: -0.254,inactive: 0.129,inactive: 0.122,inactive: 0.046,inactive: -0.101,inactive: -0.064,inactive: 0.102,inactive: -0.035,inactive: -0.061,inactive: -0.018,inactive: 0.002,–,inactive: 0.026
HIKESHI (UniProt Q53FT3),inactive: 0.004,inactive: 0.025,inactive: 0.025,inactive: 0.002,inactive: -0.059,inactive: 0.012,inactive: -0.028,inactive: 0.003,inactive: 0.014,inactive: -0.007,inactive: 0.004,inactive: 0.014,inactive: 0.02,inactive: 0.024,inactive: -0.029,inactive: -0.046,inactive: 0.051,inactive: -0.008,inactive: -0.066,inactive: -0.037
HECTD4 (UniProt J3KPF0),inactive: -0.024,inactive: -0.127,inactive: -0.005,inactive: -0.004,inactive: -0.024,inactive: -0.002,inactive: 0.101,inactive: 0.014,inactive: -0.009,inactive: -0.077,inactive: -0.007,inactive: 0.037,inactive: -0.145,inactive: 0.016,inactive: 0.02,inactive: 0.011,inactive: 0.017,inactive: -0.043,inactive: 0.01,inactive: -0.083
HK2 (UniProt P52789),inactive: -0.003,inactive: -0.069,inactive: 0.043,inactive: 0.007,inactive: -0.056,inactive: 0.05,inactive: 0.004,inactive: 0.065,inactive: -0.003,inactive: -0.052,inactive: 0,inactive: 0.033,inactive: -0.079,inactive: -0.01,inactive: 0.048,inactive: 0.035,inactive: -0.031,inactive: -0.017,inactive: 0.007,inactive: -0.076

# — the supplement of paper PMC10849652
